Values of other authors as cited in US20180116920A1, “MULTI-STEP PROCESS FOR NO PRODUCTION” (BSN medical GmbH, priority 2015, published 2018).
At least one structure is not confirmed: it was looked up by name or label, or the drawing left a doubt.

Details: ascorbate, conditions not given

Q: For O=C1O[C@H]([C@@H](O)CO)C(O)=C1O [ascorbate], which redox potential is on record?
A: Its redox potential is “+0.35 Volt”.
